Assay results from article PMC4650652.
Positions count from the first letter of the chain named. In names and notes the source's numbering stands. Results are given in words; binding and its absence hold for the method and conditions named. In cells and extracts the contact can be indirect. Some results given as binding are weak or reduced against the parent protein; the word gives no strength. Sequences can lack the tags named with a protein.

T1: HA-RIG-I (UniProt O95786)
T1 sequence: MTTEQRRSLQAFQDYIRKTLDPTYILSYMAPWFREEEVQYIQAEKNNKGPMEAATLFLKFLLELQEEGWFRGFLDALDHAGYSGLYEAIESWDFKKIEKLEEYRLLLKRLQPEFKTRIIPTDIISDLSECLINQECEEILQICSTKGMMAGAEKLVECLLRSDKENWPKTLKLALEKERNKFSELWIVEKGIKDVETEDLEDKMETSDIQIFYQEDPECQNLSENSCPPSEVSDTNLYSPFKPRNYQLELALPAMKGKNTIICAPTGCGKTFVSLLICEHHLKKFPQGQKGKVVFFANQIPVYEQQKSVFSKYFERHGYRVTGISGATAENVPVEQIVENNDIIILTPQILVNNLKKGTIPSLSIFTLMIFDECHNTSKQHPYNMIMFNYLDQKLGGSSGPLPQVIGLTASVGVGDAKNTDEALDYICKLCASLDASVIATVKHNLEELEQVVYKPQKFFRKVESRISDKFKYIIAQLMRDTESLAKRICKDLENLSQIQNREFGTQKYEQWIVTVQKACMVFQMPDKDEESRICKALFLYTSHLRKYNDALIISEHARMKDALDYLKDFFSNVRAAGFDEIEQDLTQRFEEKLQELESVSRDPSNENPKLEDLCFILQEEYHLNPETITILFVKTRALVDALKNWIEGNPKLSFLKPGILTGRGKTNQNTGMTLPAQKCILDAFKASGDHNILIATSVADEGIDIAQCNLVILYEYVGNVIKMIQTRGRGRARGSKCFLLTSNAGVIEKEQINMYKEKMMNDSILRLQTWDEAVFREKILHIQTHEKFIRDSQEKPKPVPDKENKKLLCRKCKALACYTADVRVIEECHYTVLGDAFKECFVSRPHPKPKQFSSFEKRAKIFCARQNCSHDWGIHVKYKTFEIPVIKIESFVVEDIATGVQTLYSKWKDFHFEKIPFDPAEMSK

T2: Flag-RIG-I (retinoic acid-inducible gene I, wild type) (UniProt O95786)
T2 sequence: T1 sequence

B1: Myc-USP15-C269A (enzyme, UniProt Q9Y4E8-2 1-952)
chain: MAEGGAADLDTQRSDIATLLKTSLRKGDTWYLVDSRWFKQWKKYVGFDSWDKYQMGDQNVYPGPIDNSGLLKDGDAQSLKEHLIDELDYILLPTEGWNKLVSWYTLMEGQEPIARKVVEQGMFVKHCKVEVYLTELKLCENGNMNNVVTRRFSKADTIDTIEKEIRKIFSIPDEKETRLWNKYMSNTFEPLNKPDSTIQDAGLYQGQVLVIEQKNEDGTWPRGPSTPNVKNSNYCLPSYTAYKNYDYSEPGRNNEQPGLCGLSNLGNTAFMNSAIQCLSNTPPLTEYFLNDKYQEELNFDNPLGMRGEIAKSYAELIKQMWSGKFSYVTPRAFKTQVGRFAPQFSGYQQQDCQELLAFLLDGLHEDLNRIRKKPYIQLKDADGRPDKVVAEEAWENHLKRNDSIIVDIFHGLFKSTLVCPECAKISVTFDPFCYLTLPLPMKKERTLEVYLVRMDPLTKPMQYKVVVPKIGNILDLCTALSALSGIPADKMIVTDIYNHRFHRIFAMDENLSSIMERDDIYVFEININRTEDTEHVIIPVCLREKFRHSSYTHHTGSSLFGQPFLMAVPRNNTEDKLYNLLLLRMCRYVKISTETEETEGSLHCCKDQNINGNGPNGIHEEGSPSEMETDEPDDESSQDQELPSENENSQSEDSVGGDNDSENGLCTEDTCKGQLTGHKKRLFTFQFNNLGNTDINYIKDDTRHIRFDDRQLRLDERSFLALDWDPDLKKRYFDENAAEDFEKHESVEYKPPKKPFVKLKDCIELFTTKEKLGAEDPWYCPNCKEHQQATKKLDLWSLPPVLVVHLKRFSYSRYMRDKLDTLVDFPINDLDMSEFLINPNAGPCRYNLIAVSNHYGGMGGGHYTAFAKNKDDGKWYYFDDSSVSTASEDQIVSKAAYVLFYQRQDTFSGTGFFPLDRETKGASAATGIPLESDEDSNDNDNDIENENCMHTN
B2: Myc-USP15-H862A (enzyme, UniProt Q9Y4E8-2 1-952)
chain: B1 chain with A269C, H862A
B3: Myc-USP15-WT (enzyme, UniProt Q9Y4E8-2 1-952)
chain: B1 chain with A269C
B4: HA-USP15-WT (ubiquitin-specific protease 15, wild type) (enzyme, UniProt Q9Y4E8-2 1-952)
chain: B1 chain with A269C
B5: HA-USP15-C269A (enzyme, UniProt Q9Y4E8-2 1-952)
chain: B1 chain
B6: HA-USP15-H862A (enzyme, UniProt Q9Y4E8-2 1-952)
chain: B1 chain with A269C, H862A

What follows are binders tested against T1, HA-RIG-I (assay: co-IP; HEK293T cells co-transfected with HA-RIG-I, Flag-IPS-1 and increasing amounts of Myc-USP15 or its mutants, infected with SEV 24 h later; lysates immunoprecipitated with anti-HA antibody, immunoblotted with anti-Flag and anti-Myc antibodies).

Which binding does the source give for B1 here?
Its binding is “binds”.

How did the binding turn out when B2 was run?
The binding was “binds”.

B3 was tested. Which binding did it give?
Its binding is “binds”.

These binders were tested against T2, Flag-RIG-I (retinoic acid-inducible gene I, wild type) (assay: co-IP; HEK293T cells co-transfected; lysis buffer 50 mM Tris-HCl pH 7.4, 150 mM NaCl, 10% glycerol, 1% Nonidet P-40, 0.1% SDS, 2 mM Na2EDTA; lysates immunoprecipitated with anti-Flag antibody (overnight, 4 °C, Protein A+G agarose), immunoblotted with anti-HA antibody).

For B4, which binding is on record?
Its binding is “binds”.

With B5 as the binder, how does the binding read?
The binding was “binds”.

For B6, which binding is on record?
Its binding is “binds”.
